Data on two molecules can be found in patent US20210277098A1 (MITSUBISHI TANABE PHARMA, published 2021).

The target in assay [1] is Human RGMa protein (R&D systems, 2459-RM) (human). Put plainly: ELISA on immobilised human RGMa; antibody in culture supernatant at 125 ng/mL after 10 min of heat treatment.
Assay [2] shares this target. Put plainly: ELISA on immobilised human RGMa, antibody 125 ng/mL, no heat treatment. On the technique in general: An ELISA detects its analyte on a solid surface through an enzyme-linked reagent.

Numbering of substitutions follows the chain as printed. Results are given in words; binding and its absence hold for the method and conditions named. A result given as binding can be weak or reduced; the word gives no strength. For part of these data: Tags and fused reporters may be left off the sequences shown.

B1: humanized anti-RGMa antibody rH116A3 (combination of heavy chain HE and light chain KA) (antibody, human IgG1, kappa, V domains shown)
VH: EVQLVESGGGLVQPGRSLRLSCTASGFTFSDAWMDWVRQAPGKGLEWVAEIRSKANNHATYYAESVKGRFTISRDDSKSIVYLQMNSLRTEDTALYYCTRRDGAYWGKGTTVTVSS
VL: DIQMTQSPSSVSASVGDRVTITCRASQDISSYLNWYQQKPGKAPKLLIYYTSRLHSGVPSRFSGSGSGTDFTLTISSLQPEDFASYFCQQLNTLPWTFGGGTKVEMER
As for B1, the binding entry in assay [1] and in assay [2] was “binds” each time.

B2: HA/KC (antibody, human IgG1, kappa, V domains shown)
VH: B1 VH with V37F, V81A, R89K
VL: B1 VL with P44V, F71Y
Take B2: the binding entry in assay [1] is given as “binds”.
